From the supplement of paper PMC10849652
The list shows a part of the results.

The chains behind the UniProt entries cited, without tags or fusion partners. Where a name states a change or a piece, a line headed by the entry shows the natural chain unless it says otherwise.
UniProt O14880: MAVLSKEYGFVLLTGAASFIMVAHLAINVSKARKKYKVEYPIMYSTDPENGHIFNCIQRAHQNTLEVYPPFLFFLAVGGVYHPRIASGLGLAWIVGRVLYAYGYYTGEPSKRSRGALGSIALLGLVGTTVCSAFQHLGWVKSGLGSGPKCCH
UniProt P26572: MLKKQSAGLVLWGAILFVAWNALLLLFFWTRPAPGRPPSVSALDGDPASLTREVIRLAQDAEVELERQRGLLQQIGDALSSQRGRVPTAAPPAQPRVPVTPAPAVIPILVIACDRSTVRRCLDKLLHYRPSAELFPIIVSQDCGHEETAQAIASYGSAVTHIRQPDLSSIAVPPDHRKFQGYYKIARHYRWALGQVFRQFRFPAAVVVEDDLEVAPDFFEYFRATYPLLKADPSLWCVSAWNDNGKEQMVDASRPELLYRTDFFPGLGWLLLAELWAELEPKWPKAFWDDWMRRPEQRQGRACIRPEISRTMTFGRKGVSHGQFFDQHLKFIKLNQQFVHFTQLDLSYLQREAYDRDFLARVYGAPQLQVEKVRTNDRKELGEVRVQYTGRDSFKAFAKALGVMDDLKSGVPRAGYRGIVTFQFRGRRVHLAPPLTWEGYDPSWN
UniProt P40926: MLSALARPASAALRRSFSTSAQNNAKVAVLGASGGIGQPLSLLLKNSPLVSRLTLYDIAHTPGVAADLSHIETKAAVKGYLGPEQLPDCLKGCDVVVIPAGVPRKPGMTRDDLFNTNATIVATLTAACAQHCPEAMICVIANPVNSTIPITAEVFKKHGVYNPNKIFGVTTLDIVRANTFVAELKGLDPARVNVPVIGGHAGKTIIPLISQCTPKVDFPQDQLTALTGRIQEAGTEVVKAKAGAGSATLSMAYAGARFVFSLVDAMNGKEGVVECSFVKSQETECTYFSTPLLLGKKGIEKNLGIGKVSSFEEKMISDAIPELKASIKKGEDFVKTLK
UniProt Q96AQ8: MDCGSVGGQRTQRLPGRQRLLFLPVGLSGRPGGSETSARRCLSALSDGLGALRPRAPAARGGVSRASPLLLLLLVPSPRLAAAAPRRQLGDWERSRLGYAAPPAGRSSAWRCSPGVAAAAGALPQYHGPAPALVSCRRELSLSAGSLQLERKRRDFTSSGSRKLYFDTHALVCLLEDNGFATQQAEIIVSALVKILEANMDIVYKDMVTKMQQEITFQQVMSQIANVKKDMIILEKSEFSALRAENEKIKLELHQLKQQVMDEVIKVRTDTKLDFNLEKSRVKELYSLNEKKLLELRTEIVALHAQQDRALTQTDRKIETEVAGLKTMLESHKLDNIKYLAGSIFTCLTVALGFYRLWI
UniProt Q15648, whole entry, looked up: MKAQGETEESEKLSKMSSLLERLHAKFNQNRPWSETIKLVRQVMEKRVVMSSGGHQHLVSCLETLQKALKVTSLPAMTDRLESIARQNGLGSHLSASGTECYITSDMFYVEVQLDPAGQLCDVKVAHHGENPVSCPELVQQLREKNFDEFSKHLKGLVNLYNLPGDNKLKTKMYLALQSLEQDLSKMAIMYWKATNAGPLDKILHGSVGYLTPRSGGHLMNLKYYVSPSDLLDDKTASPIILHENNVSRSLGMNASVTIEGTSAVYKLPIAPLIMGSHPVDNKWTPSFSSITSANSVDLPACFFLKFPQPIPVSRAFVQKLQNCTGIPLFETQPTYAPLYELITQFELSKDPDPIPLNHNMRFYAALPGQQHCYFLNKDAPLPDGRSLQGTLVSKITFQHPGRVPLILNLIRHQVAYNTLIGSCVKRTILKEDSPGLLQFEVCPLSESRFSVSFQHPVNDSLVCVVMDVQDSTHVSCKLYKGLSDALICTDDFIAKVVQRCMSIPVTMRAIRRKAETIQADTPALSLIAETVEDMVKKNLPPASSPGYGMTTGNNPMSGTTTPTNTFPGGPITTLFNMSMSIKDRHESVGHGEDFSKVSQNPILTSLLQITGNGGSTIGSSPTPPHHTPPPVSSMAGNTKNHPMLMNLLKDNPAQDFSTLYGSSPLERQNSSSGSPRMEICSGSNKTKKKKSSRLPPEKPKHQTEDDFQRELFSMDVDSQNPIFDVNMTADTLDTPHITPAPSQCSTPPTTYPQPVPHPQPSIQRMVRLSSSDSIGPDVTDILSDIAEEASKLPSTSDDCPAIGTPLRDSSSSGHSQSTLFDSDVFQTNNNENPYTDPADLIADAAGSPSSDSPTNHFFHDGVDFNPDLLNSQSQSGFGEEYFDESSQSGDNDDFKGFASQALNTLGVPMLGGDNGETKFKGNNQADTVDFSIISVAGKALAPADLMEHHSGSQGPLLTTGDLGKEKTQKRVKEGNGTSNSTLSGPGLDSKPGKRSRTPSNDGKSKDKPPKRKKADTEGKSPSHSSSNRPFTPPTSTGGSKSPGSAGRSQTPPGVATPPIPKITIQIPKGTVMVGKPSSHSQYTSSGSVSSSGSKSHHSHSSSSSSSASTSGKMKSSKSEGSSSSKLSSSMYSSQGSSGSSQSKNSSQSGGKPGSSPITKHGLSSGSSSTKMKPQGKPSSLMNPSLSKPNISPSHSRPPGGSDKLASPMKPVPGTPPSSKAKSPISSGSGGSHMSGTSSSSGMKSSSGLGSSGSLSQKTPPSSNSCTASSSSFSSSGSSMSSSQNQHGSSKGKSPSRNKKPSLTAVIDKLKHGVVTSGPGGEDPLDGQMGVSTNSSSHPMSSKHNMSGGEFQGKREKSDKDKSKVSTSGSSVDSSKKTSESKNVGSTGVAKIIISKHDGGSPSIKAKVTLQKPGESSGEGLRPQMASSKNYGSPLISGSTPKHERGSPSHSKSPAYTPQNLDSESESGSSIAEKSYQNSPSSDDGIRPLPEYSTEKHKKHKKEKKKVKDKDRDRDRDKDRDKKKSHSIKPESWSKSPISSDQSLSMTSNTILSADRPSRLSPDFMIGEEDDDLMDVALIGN
UniProt Q9H944: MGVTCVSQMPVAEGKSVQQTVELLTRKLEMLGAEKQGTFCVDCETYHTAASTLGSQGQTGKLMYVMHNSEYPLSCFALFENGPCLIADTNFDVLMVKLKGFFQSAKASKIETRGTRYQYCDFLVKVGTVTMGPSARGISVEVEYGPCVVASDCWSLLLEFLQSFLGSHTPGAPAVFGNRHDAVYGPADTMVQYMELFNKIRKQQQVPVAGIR
UniProt Q96PC5: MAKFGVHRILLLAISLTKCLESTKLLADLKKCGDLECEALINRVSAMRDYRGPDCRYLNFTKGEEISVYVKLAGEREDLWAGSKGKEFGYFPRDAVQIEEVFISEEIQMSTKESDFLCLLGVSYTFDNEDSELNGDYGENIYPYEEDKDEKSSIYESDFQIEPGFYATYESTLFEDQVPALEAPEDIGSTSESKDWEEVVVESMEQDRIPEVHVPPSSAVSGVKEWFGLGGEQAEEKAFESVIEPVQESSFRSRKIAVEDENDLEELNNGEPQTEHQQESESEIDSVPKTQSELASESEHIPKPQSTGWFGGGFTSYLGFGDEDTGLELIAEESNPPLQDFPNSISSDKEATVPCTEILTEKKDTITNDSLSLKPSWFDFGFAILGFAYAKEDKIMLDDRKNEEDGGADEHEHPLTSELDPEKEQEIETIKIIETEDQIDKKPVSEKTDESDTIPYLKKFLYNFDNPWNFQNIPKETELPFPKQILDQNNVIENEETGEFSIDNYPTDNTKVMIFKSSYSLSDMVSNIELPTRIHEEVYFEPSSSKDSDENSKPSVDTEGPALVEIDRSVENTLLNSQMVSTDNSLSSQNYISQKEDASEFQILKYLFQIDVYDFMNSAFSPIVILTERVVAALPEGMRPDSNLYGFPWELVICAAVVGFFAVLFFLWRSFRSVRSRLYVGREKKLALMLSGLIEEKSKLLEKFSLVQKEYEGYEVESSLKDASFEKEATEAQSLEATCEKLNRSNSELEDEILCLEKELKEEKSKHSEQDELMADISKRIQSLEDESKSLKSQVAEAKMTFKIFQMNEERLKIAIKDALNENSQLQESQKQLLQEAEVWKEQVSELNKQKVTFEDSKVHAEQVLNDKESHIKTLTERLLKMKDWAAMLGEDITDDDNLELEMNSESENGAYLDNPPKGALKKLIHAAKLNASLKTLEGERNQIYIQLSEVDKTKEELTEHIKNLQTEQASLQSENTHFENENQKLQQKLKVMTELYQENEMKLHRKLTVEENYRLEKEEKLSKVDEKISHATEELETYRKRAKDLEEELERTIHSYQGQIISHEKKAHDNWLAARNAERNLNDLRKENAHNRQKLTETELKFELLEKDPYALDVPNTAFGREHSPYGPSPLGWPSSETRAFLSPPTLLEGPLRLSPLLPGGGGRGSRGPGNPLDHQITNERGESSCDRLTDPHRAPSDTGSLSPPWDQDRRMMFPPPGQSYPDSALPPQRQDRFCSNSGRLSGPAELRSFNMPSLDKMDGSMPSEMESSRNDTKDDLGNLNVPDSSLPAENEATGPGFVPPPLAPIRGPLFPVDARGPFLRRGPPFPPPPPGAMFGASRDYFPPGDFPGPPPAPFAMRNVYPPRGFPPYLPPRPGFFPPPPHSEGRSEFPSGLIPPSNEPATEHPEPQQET
UniProt P31153, whole entry, looked up: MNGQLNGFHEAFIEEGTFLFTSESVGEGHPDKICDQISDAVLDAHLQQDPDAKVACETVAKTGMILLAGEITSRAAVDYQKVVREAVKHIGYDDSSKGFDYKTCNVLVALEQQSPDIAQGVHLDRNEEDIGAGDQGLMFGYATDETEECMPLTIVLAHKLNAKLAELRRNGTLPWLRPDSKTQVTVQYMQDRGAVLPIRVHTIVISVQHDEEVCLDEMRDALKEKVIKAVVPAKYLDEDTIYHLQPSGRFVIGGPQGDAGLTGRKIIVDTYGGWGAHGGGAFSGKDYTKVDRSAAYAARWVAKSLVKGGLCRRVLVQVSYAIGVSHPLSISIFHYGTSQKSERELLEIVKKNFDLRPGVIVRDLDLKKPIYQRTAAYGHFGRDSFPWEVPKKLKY
UniProt Q96HR3: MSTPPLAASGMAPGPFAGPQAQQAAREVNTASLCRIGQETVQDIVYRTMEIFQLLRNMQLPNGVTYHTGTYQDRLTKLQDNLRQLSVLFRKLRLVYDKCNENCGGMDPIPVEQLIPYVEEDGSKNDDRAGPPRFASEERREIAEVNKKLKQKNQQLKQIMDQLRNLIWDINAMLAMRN
UniProt Q10469: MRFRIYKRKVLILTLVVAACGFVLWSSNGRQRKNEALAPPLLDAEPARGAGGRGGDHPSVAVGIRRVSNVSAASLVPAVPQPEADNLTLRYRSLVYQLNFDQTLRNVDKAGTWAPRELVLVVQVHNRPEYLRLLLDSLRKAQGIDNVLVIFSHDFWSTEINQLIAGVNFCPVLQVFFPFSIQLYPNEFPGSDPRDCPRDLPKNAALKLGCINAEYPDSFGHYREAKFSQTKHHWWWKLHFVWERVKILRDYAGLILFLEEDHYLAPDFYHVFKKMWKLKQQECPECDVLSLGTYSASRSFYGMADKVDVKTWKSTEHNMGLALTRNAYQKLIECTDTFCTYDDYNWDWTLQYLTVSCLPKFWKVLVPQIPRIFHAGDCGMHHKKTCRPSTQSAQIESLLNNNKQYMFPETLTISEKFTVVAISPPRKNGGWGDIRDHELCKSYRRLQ
UniProt Q96PE7: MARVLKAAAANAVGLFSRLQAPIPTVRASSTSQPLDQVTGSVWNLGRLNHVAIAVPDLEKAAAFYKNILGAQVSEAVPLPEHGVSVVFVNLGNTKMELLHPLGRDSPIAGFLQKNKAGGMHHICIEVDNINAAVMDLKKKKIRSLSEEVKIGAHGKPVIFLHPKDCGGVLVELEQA
UniProt Q9GZY8: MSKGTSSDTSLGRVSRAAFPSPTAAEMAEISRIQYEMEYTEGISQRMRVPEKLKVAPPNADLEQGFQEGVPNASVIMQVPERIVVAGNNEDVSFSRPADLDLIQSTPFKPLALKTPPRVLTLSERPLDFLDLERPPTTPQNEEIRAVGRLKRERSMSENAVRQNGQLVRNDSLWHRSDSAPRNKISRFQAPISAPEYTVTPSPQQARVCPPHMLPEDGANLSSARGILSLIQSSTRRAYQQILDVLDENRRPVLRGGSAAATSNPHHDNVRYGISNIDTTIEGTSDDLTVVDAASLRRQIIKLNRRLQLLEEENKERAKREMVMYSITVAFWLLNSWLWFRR
UniProt Q9H3U5: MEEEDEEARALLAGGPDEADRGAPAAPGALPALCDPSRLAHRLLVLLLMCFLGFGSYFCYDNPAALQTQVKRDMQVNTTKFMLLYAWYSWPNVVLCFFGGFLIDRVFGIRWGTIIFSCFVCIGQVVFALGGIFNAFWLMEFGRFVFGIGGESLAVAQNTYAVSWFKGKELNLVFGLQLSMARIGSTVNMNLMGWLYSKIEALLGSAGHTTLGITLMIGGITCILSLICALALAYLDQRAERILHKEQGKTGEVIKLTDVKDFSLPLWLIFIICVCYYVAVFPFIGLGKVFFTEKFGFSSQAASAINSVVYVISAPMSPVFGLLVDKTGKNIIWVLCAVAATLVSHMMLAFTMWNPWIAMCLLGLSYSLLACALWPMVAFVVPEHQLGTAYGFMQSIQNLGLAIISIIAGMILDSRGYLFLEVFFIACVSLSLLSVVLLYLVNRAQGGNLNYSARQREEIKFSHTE

Columns and labels:
Experiment in all cases: log2 fold change, soluble protein after heating vs DMSO (PISA); higher = thermal stabilisation; K562 cells, 10 uM, 30 min; active = over 0.2 and 3.5 SD of the protein, either way, in both replicates (recomputed)
[1] = compound: CC1=C(C=C(C=C1)NC(=O)C2=CC(=CC=C2)C(C)(C)C#N)NC3=CC4=C(C=C3)N=CN(C4=O)C
Summary of the method: (§1)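 K562 cells at 2×10^6 cells/mL were treated with 10 μM compound for 30 min. Aliquots were heated for 3 min across 48°C-58°C, pooled, and extracted in PBS with 0.5% NP-40 at 4°C; soluble protein was the supernatant after 21,000xg for 90 min. Soluble protein was quantified by TMTpro 16plex LC-MS/MS with channel sums equalised, and reported as log2 fold change in thermal stability against DMSO controls, with values from duplicates.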

[2] = compound: CC1=C(C=C(C=C1)NC(=O)C2=CC(=CC=C2)N(C)C)NC(=O)C3=CC=C(C=C3)O
Summary of the method: as §1

[3] = compound: CC1=CC=C(C=C1)SC2=C3C=C(SC3=CN=C2)C(=O)N
Summary of the method: as §1

[4] = compound: CC1=NC(=CC=C1)C2=C(N=C(N2)C(C)(C)C)C3=CC4=NC=CN=C4C=C3
Summary of the method: as §1

Nexturastat A = compound: CCCCN(Cc1ccc(C(=O)NO)cc1)C(=O)Nc1ccccc1 [Nexturastat A]
Summary of the method: as §1

vemurafenib = compound: CCCS(=O)(=O)Nc1ccc(F)c(C(=O)c2c[nH]c3ncc(-c4ccc(Cl)cc4)cc23)c1F [vemurafenib]
Summary of the method: as §1

[5] = compound: CCCS(=O)(=O)Nc1ccc(F)c(C(=O)c2c[nH]c3ncc(Cl)cc23)c1F
Summary of the method: as §1

[6] = compound: CCCc1cc(C)[nH]c(=O)c1CNC(=O)c1cc(-c2ccnc(N3CCN(C)CC3)c2)cc2c1cnn2C(C)C
Summary of the method: as §1

givinostat = compound: CCN(CC)Cc1ccc2cc(COC(=O)Nc3ccc(C(=O)NO)cc3)ccc2c1 [givinostat]
Summary of the method: as §1

barasertib = compound: CCN(CCCOc1ccc2c(Nc3cc(CC(=O)Nc4cccc(F)c4)[nH]n3)ncnc2c1)CCOP(=O)(O)O [barasertib]
Summary of the method: as §1

Measured: log2 fold change

MEAF6 isoform 3 (UniProt Q9HAF1)
inactive: [1] 0.06 | [2] 0.035 | [3] -0.061 | [4] -0.066 | Nexturastat A 0.224 | vemurafenib -0.023 | [5] -0.031 | [6] 0.012 | givinostat 0.015 | barasertib -0.042

MGST3 (UniProt O14880)
inactive: [1] -0.029 | [2] 0.005 | [3] 0 | [4] -0.049 | Nexturastat A 0.015 | vemurafenib -0.037 | [5] -0.011 | [6] -0.057 | givinostat 0.003 | barasertib 0.003

MCRIP1 (UniProt I3L4Q0)
inactive: [1] -0.027 | [2] -0.029 | [3] -0.007 | [4] 0.031 | Nexturastat A 0.009 | vemurafenib 0.041 | [5] -0.063 | [6] -0.091 | givinostat -0.001 | barasertib -0.012

MGAT1 (UniProt P26572)
inactive: [1] 0.004 | [2] 0.074 | [3] -0.023 | [4] 0.06 | Nexturastat A -0.005 | vemurafenib 0.002 | [5] 0.001 | [6] 0.019 | givinostat -0.035 | barasertib -0.012

MDH2 (UniProt P40926)
inactive: [1] -0.015 | [2] 0.013 | [3] 0.021 | [4] 0.001 | Nexturastat A -0.109 | vemurafenib -0.001 | [5] -0.02 | [6] -0.033 | givinostat -0.079 | barasertib -0.004

MCUR1 (UniProt Q96AQ8)
inactive: [1] 0 | [2] -0.067 | [3] -0.01 | [4] 0.012 | Nexturastat A -0.06 | vemurafenib 0.018 | [5] -0.041 | [6] -0.079 | givinostat -0.033 | barasertib -0.008

MDP1 (UniProt Q86V88)
inactive: [1] -0.031 | [2] -0.033 | [3] 0.038 | [4] -0.033 | Nexturastat A 0.044 | vemurafenib 0 | [5] -0.018 | [6] -0.035 | givinostat -0.028 | barasertib 0.029

MED1 (UniProt Q15648)
inactive: [1] -0.043 | [2] 0.084 | [3] -0.067 | [4] -0.06 | Nexturastat A 0.079 | vemurafenib -0.028 | [5] -0.034 | [6] -0.006 | givinostat 0.001 | barasertib -0.023

MED24 (UniProt O75448)
inactive: [1] -0.027 | [2] -0.005 | [3] -0.134 | [4] -0.023 | Nexturastat A 0.025 | vemurafenib 0.001 | [5] -0.085 | [6] -0.004 | givinostat 0 | barasertib -0.117

MCL1 (UniProt Q07820)
inactive: [1] -0.022 | [2] -0.047 | [3] 0.048 | [4] 0.048 | Nexturastat A 0.08 | vemurafenib -0.057 | [5] -0.164 | [6] 0.084 | givinostat 0.075 | barasertib -0.027

MED4 (UniProt Q9NPJ6)
inactive: [1] -0.024 | [2] -0.018 | [3] -0.114 | [4] 0.011 | Nexturastat A 0.065 | vemurafenib 0.014 | [5] -0.036 | [6] -0.052 | givinostat 0.016 | barasertib 0.125

MED20 (UniProt Q9H944)
inactive: [1] 0.008 | [2] -0.009 | [3] 0.021 | [4] 0.027 | Nexturastat A 0.076 | vemurafenib 0.036 | [5] -0.002 | [6] -0.052 | givinostat -0.039 | barasertib 0.034

MIA2 (UniProt Q96PC5)
inactive: [1] 0.009 | [2] -0.012 | [3] -0.002 | [4] -0.016 | Nexturastat A 0.015 | vemurafenib 0.003 | [5] -0.062 | [6] 0.128 | givinostat 0.003 | barasertib 0.021

MCM7 (UniProt P33993)
inactive: [1] -0.014 | [2] 0.001 | [3] -0.009 | [4] 0.017 | Nexturastat A -0.01 | vemurafenib 0.044 | [5] 0.014 | [6] -0.028 | givinostat 0.012 | barasertib 0.014

MAT2A (UniProt P31153)
inactive: [1] -0.028 | [2] 0.011 | [3] -0.014 | [4] -0.021 | Nexturastat A -0.061 | vemurafenib -0.028 | [5] -0.05 | [6] -0.012 | givinostat -0.022 | barasertib 0.031

MED30 (UniProt Q96HR3)
inactive: [1] -0.071 | [2] 0.009 | [3] 0.003 | [4] 0.001 | Nexturastat A 0.123 | vemurafenib -0.028 | [5] 0.032 | [6] -0.097 | givinostat -0.026 | barasertib 0.015

MBOAT2 (UniProt Q6ZWT7)
inactive: [1] 0.05 | [2] 0.02 | [3] -0.012 | [4] -0.032 | Nexturastat A 0.05 | vemurafenib 0.043 | [5] 0.062 | [6] -0.036 | givinostat 0.011 | barasertib 0.008

METTL3 (UniProt Q86U44)
inactive: [1] -0.013 | [2] 0.016 | [3] 0.02 | [4] 0.022 | Nexturastat A -0.01 | vemurafenib 0.016 | [5] 0.027 | [6] 0.032 | givinostat -0.028 | barasertib -0.006

MGAT2 (UniProt Q10469)
inactive: [1] 0.017 | [2] 0.008 | [3] 0.001 | [4] -0.007 | Nexturastat A -0.001 | vemurafenib 0.038 | [5] 0.016 | [6] 0.19 | givinostat -0.017 | barasertib 0.022

Copied from the listing (2 entries):
MGAT1 (UniProt P26572)
inactive: [1] 0.004 | [2] 0.074 | [3] -0.023 | [4] 0.06 | Nexturastat A -0.005 | vemurafenib 0.002 | [5] 0.001 | [6] 0.019 | givinostat -0.035 | barasertib -0.012

MDH2 (UniProt P40926)
inactive: [1] -0.015 | [2] 0.013 | [3] 0.021 | [4] 0.001 | Nexturastat A -0.109 | vemurafenib -0.001 | [5] -0.02 | [6] -0.033 | givinostat -0.079 | barasertib -0.004

Next entries.

MCEE (UniProt Q96PE7)
inactive: [1] -0.017 | [2] 0.014 | [3] 0.04 | Nexturastat A 0.014 | vemurafenib -0.178 | [5] -0.033 | [6] -0.016 | givinostat -0.024 | barasertib 0.004

MFSD4B (UniProt Q5TF39)
inactive: [1] 0.051 | [2] -0.003 | [3] -0.094 | [4] -0.015 | Nexturastat A -0.026 | vemurafenib 0.129 | [5] 0.075 | [6] -0.265 | barasertib 0.035

MBOAT7 (UniProt Q96N66)
inactive: [1] 0 | [2] 0.017 | [3] 0.028 | [4] 0.016 | Nexturastat A -0.019 | vemurafenib 0.001 | [5] 0.012 | [6] -0.033 | givinostat -0.028 | barasertib -0.015

MFF (UniProt Q9GZY8)
inactive: [1] -0.036 | [2] 0.002 | [3] 0.039 | [4] 0.02 | Nexturastat A 0.006 | vemurafenib -0.013 | [5] 0.018 | [6] -0.117 | givinostat 0.033 | barasertib 0.036

MED7 (UniProt O43513)
inactive: [1] 0.049 | [2] -0.023 | [3] -0.009 | [4] 0.015 | Nexturastat A 0.212 | vemurafenib -0.021 | [5] -0.093 | givinostat -0.008 | barasertib -0.149

MAU2 (UniProt Q9Y6X3)
inactive: [1] -0.454 | [2] 0.013 | [3] 0.059 | vemurafenib 0.101 | [5] 0.031 | [6] -0.073 | givinostat 0.115

MATR3 (UniProt P43243)
inactive: [1] 0.006 | [2] -0.105 | [4] -0.011 | Nexturastat A 0.282 | vemurafenib -0.14 | [6] -1.19 | givinostat 0.174 | barasertib -0.092

MFSD1 isoform 6 (UniProt Q9H3U5)
inactive: [1] 0.056 | [2] -0.008 | [3] -0.046 | Nexturastat A -0.106 | vemurafenib -0.053 | [5] -0.059 | [6] 0.021 | givinostat 0.008 | barasertib 0.041
